From publication PMC4640547
No constants are given. Whether binding was seen depends on the method and setting. Binding seen in cells or lysates may run through a third protein. Sequences can lack the tags named with a protein.

Molecular target: T1, EGFP-tagged CD180 (human) (UniProt Q99467)
T1 sequence: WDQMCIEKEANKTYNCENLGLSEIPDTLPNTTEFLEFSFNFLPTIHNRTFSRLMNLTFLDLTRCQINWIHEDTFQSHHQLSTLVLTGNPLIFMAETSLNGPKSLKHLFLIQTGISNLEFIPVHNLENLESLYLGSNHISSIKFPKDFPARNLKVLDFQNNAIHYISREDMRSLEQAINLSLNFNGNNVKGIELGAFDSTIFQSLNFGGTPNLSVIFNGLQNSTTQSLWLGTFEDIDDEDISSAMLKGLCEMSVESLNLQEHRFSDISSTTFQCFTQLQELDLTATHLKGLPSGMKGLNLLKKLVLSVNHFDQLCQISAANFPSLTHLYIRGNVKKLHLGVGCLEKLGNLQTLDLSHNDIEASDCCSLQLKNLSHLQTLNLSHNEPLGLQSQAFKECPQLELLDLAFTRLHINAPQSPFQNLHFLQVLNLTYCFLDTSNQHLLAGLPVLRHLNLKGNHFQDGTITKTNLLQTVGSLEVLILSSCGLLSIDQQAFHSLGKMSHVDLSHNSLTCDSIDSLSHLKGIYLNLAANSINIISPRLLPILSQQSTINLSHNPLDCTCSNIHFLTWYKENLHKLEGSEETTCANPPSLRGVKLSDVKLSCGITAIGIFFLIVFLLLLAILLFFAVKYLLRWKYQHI
Test: co-IP; HEK cells transiently co-transfected with APP-tagged PIM-1L and EGFP-tagged CD180; precleared lysates immunoprecipitated with anti-GFP antibody and Protein G Sepharose; blot with anti-PIM-1

binding: no binding
Substance: tagged, kinase-dead DN PIM-1L variant (K67M) (enzyme)
